{"source": "PubChem BioAssay AID504744 – Drosophila RNAi Screening Center, 2011", "assay": "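Uncover factors, including feedback loops, that control dAkt activation in fly cells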 (primary screen)", "cells": "Drosophila Kc167 cells", "knock-down reagent": "long dsRNA against Drosophila genes, 250 ng dsRNA per well of a 384-well plate", "time to read-out": "3 days of knock-down, then overnight serum-free starvation before stimulation", "treatment": "bovine insulin at 387 nM for 10 minutes after 12 h without serum", "measured": "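In-cell antibody fluorescence for phospho-dAkt in each well over DNA-dye signal, with log2 residuals expressed as z-scores adjusted for cell count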", "active means": "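Hit in the insulin screen when the two-replicate mean z-score is more extreme than plus or minus 2.5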", "note": "The screen tested about 23,000 reagents; this is a random part of those with a known target gene and a result. Of all reagents, 98 (0.43%) got an active call. 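Only hit calls are given; the phospho-dAkt signals, z-scores and hit direction were not deposited.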 The numbers tell different reagents against one gene apart. A plus sign joins genes that one reagent is predicted to hit."}
The first 4 entries as a preview:
{"predicted target": "hale", "reagent": 1, "activity call": "inactive"}
{"predicted target": "CG3224", "reagent": 1, "activity call": "inactive"}
{"predicted target": "Dcr-2", "reagent": 1, "activity call": "inactive"}
{"predicted target": "alphaTub85E", "reagent": 1, "activity call": "inactive"}

The list itself, from the first entry:
{"predicted target": "hale", "reagent": 1, "activity call": "inactive"}
{"predicted target": "CG3224", "reagent": 1, "activity call": "inactive"}
{"predicted target": "Dcr-2", "reagent": 1, "activity call": "inactive"}
{"predicted target": "alphaTub85E", "reagent": 1, "activity call": "inactive"}
{"predicted target": "CG11836", "reagent": 1, "activity call": "inactive"}
{"predicted target": "CG8197", "reagent": 1, "activity call": "inactive"}
{"predicted target": "CG32024", "reagent": 1, "activity call": "inactive"}
{"predicted target": "Dsk", "reagent": 1, "activity call": "inactive"}
{"predicted target": "tefu", "reagent": 1, "activity call": "inactive"}
{"predicted target": "Nsun2", "reagent": 1, "activity call": "inactive"}
{"predicted target": "ND-B8", "reagent": 1, "activity call": "inactive"}
{"predicted target": "sturkopf", "reagent": 1, "activity call": "inactive"}
{"predicted target": "CG6901", "reagent": 1, "activity call": "inactive"}
{"predicted target": "wfs1", "reagent": 1, "activity call": "inactive"}
{"predicted target": "CG17974", "reagent": 1, "activity call": "inactive"}
{"predicted target": "CG34305", "reagent": 1, "activity call": "inactive"}
{"predicted target": "jtb", "reagent": 1, "activity call": "inactive"}
{"predicted target": "CG2691", "reagent": 1, "activity call": "inactive"}
{"predicted target": "Set1", "reagent": 1, "activity call": "inactive"}
{"predicted target": "Set1", "reagent": 2, "activity call": "inactive"}
{"predicted target": "CG34203", "reagent": 1, "activity call": "inactive"}
{"predicted target": "Pax", "reagent": 1, "activity call": "inactive"}
{"predicted target": "Pax", "reagent": 2, "activity call": "inactive"}
{"predicted target": "Pax", "reagent": 3, "activity call": "inactive"}
{"predicted target": "CG3587", "reagent": 1, "activity call": "inactive"}
{"predicted target": "CG3587", "reagent": 2, "activity call": "inactive"}
{"predicted target": "kon", "reagent": 1, "activity call": "inactive"}
{"predicted target": "APC10", "reagent": 1, "activity call": "inactive"}
{"predicted target": "COX5BL", "reagent": 1, "activity call": "inactive"}
{"predicted target": "CG14238", "reagent": 1, "activity call": "inactive"}
{"predicted target": "CG17490", "reagent": 1, "activity call": "inactive"}
{"predicted target": "CG17490", "reagent": 2, "activity call": "inactive"}
{"predicted target": "CG31230", "reagent": 1, "activity call": "inactive"}
{"predicted target": "eIF3k", "reagent": 1, "activity call": "inactive"}
{"predicted target": "14-3-3zeta", "reagent": 1, "activity call": "inactive"}
{"predicted target": "Prx6c + CG12896 + Prx6b", "reagent": 1, "activity call": "inactive"}
{"predicted target": "Gfat2", "reagent": 1, "activity call": "inactive"}
{"predicted target": "PKD", "reagent": 1, "activity call": "inactive"}
{"predicted target": "Trhn", "reagent": 1, "activity call": "inactive"}
{"predicted target": "CG12546 + CG14452", "reagent": 1, "activity call": "inactive"}
{"predicted target": "CG5002", "reagent": 1, "activity call": "inactive"}
{"predicted target": "sub", "reagent": 1, "activity call": "inactive"}
{"predicted target": "Scr", "reagent": 1, "activity call": "inactive"}
{"predicted target": "Cyp28d2", "reagent": 1, "activity call": "inactive"}
{"predicted target": "CG42399", "reagent": 1, "activity call": "inactive"}
{"predicted target": "CG42399", "reagent": 2, "activity call": "inactive"}
{"predicted target": "Saf-B", "reagent": 1, "activity call": "inactive"}
{"predicted target": "nur", "reagent": 1, "activity call": "inactive"}
{"predicted target": "CG10286", "reagent": 1, "activity call": "inactive"}
{"predicted target": "sli", "reagent": 1, "activity call": "inactive"}
{"predicted target": "CG17712", "reagent": 1, "activity call": "inactive"}
{"predicted target": "CG14187", "reagent": 1, "activity call": "inactive"}
{"predicted target": "SdhAL", "reagent": 1, "activity call": "inactive"}
{"predicted target": "Amyrel", "reagent": 1, "activity call": "inactive"}
{"predicted target": "angel", "reagent": 1, "activity call": "inactive"}
{"predicted target": "angel", "reagent": 2, "activity call": "inactive"}
{"predicted target": "Not3", "reagent": 1, "activity call": "inactive"}
